Reference: paper PMC11118681
These are yes or no findings as the source states them, for the method shown. In cells and extracts the contact can be indirect. Some binding calls cover weakened binding; strength is not graded here.

By UniProt entry, the sequences of proteins in these tests, tags left out.
UniProt O95477: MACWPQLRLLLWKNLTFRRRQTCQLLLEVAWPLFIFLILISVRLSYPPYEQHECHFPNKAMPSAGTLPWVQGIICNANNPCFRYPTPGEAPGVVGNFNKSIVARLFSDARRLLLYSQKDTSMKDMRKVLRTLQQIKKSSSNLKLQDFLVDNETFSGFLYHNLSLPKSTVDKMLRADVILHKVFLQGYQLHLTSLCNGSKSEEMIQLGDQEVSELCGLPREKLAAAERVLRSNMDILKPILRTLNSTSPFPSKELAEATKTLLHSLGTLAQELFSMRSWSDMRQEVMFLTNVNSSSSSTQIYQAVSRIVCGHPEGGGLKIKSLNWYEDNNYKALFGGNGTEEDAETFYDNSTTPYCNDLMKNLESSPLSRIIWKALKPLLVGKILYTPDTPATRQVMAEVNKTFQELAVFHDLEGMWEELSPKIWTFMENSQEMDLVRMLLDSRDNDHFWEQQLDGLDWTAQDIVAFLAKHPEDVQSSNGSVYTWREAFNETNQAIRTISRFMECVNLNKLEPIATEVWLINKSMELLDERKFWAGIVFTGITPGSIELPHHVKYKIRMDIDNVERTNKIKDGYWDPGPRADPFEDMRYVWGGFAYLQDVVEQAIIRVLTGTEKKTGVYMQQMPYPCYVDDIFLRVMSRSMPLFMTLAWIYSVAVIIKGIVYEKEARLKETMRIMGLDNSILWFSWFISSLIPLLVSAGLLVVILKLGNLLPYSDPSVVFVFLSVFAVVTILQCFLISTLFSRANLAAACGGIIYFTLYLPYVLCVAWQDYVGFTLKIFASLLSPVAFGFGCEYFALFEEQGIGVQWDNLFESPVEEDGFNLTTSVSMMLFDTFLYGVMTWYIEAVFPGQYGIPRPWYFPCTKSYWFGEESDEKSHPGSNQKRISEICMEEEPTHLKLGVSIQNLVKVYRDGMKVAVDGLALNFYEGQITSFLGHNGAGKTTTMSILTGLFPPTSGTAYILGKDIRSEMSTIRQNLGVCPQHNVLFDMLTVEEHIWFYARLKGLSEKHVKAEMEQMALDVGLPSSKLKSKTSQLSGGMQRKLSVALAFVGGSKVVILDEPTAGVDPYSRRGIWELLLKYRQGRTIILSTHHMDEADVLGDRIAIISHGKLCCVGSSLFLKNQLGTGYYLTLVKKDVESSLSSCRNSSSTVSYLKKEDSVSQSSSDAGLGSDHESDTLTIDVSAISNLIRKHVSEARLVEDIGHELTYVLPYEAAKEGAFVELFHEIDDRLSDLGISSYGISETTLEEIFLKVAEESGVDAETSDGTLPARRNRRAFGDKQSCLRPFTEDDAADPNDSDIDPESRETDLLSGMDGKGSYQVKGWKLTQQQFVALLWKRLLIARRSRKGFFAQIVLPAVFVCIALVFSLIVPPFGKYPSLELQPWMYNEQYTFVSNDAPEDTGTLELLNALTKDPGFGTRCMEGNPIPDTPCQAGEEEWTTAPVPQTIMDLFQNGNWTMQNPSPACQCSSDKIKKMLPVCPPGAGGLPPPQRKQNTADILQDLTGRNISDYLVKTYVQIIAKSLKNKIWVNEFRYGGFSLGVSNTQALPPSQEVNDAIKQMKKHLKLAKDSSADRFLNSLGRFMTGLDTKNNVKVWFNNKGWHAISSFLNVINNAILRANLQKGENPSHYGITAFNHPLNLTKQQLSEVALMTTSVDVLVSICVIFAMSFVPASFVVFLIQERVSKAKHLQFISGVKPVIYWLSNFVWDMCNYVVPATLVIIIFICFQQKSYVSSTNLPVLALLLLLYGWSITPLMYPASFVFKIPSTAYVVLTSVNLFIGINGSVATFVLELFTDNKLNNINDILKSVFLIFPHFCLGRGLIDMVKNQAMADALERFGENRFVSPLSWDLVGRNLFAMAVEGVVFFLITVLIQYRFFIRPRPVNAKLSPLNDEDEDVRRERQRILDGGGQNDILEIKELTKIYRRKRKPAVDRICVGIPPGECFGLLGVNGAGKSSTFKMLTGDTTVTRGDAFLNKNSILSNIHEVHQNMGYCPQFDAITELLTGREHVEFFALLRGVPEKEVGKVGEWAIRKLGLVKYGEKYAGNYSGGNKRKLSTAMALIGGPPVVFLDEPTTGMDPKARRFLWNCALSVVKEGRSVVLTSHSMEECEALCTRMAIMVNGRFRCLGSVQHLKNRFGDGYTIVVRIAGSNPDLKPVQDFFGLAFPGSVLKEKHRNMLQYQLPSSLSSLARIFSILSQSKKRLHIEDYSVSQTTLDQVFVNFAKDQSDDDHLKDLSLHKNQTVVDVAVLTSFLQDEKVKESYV
UniProt P41233: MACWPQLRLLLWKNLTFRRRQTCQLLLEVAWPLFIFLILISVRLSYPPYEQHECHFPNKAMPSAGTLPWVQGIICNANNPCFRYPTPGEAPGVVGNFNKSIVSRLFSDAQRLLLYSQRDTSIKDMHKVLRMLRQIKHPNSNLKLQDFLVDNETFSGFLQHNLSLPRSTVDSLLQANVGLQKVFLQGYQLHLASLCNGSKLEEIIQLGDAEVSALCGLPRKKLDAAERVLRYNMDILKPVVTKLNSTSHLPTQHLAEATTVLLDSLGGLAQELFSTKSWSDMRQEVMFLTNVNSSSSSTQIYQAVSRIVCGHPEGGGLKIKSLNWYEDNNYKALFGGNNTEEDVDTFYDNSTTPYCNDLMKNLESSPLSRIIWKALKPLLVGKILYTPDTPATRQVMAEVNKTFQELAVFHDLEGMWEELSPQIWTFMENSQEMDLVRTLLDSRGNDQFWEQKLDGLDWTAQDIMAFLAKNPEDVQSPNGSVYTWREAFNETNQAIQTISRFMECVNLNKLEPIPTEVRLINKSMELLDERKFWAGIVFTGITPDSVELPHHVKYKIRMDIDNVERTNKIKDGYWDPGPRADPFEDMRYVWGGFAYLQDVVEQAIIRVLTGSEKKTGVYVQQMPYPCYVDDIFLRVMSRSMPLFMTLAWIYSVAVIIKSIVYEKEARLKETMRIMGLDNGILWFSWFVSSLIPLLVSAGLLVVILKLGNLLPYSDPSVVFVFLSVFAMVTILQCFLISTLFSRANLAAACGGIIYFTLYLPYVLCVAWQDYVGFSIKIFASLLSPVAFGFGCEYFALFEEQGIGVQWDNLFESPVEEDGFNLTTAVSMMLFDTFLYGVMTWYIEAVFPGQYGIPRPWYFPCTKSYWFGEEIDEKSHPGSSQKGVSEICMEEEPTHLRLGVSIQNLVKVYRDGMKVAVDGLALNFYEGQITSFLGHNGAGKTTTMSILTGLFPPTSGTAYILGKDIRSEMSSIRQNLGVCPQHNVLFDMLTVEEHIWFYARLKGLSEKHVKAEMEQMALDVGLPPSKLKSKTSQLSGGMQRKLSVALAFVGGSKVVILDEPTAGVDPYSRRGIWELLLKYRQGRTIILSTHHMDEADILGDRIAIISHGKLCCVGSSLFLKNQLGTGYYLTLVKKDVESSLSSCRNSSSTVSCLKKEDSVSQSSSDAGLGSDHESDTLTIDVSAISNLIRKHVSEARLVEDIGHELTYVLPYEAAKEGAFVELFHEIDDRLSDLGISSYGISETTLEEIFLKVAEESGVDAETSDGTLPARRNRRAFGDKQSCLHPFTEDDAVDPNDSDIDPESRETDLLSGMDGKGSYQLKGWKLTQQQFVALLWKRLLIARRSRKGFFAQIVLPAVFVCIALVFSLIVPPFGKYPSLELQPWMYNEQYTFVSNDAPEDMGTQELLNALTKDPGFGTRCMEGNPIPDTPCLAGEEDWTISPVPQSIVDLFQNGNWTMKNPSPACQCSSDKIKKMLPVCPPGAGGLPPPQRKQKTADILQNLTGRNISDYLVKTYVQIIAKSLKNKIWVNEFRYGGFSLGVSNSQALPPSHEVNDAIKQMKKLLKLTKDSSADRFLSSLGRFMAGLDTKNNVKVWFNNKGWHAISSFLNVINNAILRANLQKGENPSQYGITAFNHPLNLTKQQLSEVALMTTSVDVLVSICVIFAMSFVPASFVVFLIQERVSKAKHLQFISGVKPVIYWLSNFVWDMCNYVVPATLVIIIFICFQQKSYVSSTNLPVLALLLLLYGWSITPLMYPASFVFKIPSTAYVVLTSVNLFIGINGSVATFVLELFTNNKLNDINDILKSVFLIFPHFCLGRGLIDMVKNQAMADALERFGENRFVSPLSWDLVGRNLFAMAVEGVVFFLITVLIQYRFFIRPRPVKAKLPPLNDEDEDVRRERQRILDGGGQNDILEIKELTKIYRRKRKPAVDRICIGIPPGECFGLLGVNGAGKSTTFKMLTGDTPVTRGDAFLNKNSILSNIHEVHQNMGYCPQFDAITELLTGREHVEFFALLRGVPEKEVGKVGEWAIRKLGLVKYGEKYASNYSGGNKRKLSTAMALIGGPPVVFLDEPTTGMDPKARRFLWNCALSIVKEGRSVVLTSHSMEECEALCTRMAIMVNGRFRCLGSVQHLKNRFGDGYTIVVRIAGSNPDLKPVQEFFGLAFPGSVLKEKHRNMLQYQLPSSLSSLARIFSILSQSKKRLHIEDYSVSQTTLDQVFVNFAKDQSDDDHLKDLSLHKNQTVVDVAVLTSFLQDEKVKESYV
UniProt P63010: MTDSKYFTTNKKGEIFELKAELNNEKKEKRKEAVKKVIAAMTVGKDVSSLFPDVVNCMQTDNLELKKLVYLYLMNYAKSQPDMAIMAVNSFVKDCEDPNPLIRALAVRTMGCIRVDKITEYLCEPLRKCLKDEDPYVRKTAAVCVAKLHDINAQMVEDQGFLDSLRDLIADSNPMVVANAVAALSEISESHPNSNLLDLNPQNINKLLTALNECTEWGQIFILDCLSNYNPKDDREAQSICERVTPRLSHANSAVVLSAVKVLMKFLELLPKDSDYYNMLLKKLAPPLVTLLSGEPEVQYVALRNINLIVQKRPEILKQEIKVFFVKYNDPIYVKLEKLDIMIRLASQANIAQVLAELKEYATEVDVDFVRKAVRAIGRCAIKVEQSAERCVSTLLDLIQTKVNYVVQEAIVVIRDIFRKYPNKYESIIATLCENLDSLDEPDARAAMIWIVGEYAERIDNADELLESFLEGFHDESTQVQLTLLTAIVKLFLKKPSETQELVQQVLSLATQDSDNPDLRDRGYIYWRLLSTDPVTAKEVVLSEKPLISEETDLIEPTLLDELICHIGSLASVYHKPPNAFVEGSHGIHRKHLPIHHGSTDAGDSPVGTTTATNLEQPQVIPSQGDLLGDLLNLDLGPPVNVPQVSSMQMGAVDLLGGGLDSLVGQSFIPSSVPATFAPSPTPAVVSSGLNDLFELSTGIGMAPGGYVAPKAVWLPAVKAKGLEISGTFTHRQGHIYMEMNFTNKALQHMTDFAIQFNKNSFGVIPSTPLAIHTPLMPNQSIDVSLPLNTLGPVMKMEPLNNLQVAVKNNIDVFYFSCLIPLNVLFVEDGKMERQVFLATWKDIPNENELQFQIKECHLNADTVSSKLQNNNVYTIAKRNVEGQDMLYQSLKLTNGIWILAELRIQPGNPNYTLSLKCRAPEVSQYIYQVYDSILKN

B1: caveolin-1 (endogenous, immortalized mouse astrocytes) (protein, UniProt P49817 1-178)
chain: MSGGKYVDSEGHLYTVPIREQGNIYKPNNKAMADEVTEKQVYDAHTKEIDLVNRDPKHLNDDVVKIDFEDVIAEPEGTHSFDGIWKASFTTFTVTKYWFYRLLSTIFGIPMALIWGIYFAILSFLHIWAVVPCIKSFLIEIQCISRVYSIYVHTFCDPLFEAIGKIFSNIRISTQKEI

Assays:
[1] = molecular target: ABCA1-GFP (ATP-binding cassette transporter A1 fused to GFP) (UniProt O95477); assay: co-IP; GFP-Trap agarose on RIPA lysates of HeLa (ABCA1-GFP) or HeLa (negative) cells, overnight at 4°C; western blotting
[2] = molecular target: ABCA1 (endogenous, immortalized mouse astrocytes) (mouse (endogenous in immortalized astrocytes)) (UniProt P41233); assay: co-IP; anti-ABCA1 antibody or species-matched IgG with Dynabeads Protein G on RIPA lysates of immortalized astrocytes, overnight at 4°C; western blotting

Row | Molecule | binding [1] | binding [2]
1 | adaptor-related protein complex 2 subunit beta 1 (from UniProt P63010 1-937) | binds | 
2 | caveolin-1 (from UniProt Q03135 1-178) | binds | 
3 | B1 |  | binds
